From patent publication US11497713B2, “Combination taxoid nanoemulsion with immunotherapy in cancer” (TargaGenix, Inc., priority 2017, dated 2022)
For at least one compound, name, drawing or mass did not settle the structure.

Tested on: human CFPAC-1 pancreatic tumor xenograft
Assay: Human CFPAC-1 pancreatic tumor xenograft efficacy (FIG. 2)
Assay type: in vivo, mice

Compound | cured (mice) (120 mg/kg total dose) [in 6] | tumor regressions (mice) (120 mg/kg total dose) [in 6] | complete regression and cure (mice) (240 mg/kg total dose) [in 5] | complete regression and cure (mice) (300 mg/kg total dose) [in 4]
CC(=O)O[C@@]12CO[C@@H]1C[C@H](O)[C@@]1(C)C(=O)[C@H](OC(=O)C3CC3)C3=C(C)[C@@H](OC(=O)[C@H](O)[C@H](C=C(C)C)NC(=O)OC(C)(C)C)C[C@@](O)([C@@H](OC(=O)c4ccccc4)[C@H]21)C3(C)C [SBT-1214] | 1 | 6 |  | 
CC/C=C\C/C=C\C/C=C\C/C=C\C/C=C\C/C=C\CCC(=O)O[C@@H](C(=O)O[C@H]1C[C@@]2(O)[C@@H](OC(=O)c3ccccc3)[C@@H]3[C@]4(OC(C)=O)CO[C@@H]4C[C@H](O)[C@@]3(C)C(=O)[C@H](OC(=O)C3CC3)C(=C1C)C2(C)C)[C@H](C=C(C)C)NC(=O)OC(C)(C)C [DHA-SBT-1214, Docosahexaenoic acid conjugate of SBT-1214] |  |  | 5 | 4
